Laboratory results published in the supplement of paper PMC6078165.
The reference is the same well before dosing, and untreated signal decays as well.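 Labels refer to human fibroblasts, largely primary: uterine (C12385, HUF), lung (H6013), bone (Hs27A), adrenal (HADF), skin (WS1), plus mammary HMF and breast cancer-associated Hs343T. Cancer lines are basal-like or mesenchymal-like triple-negative breast cancer. The paper counts as hits responses shifting over 3x the replicate standard deviation. The tissue of the other fibroblasts is not given here.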

Test system: MDAMB468
Assay: relative JC-1 red fluorescence (viability) vs pre-drug, coculture with fibroblast (fraction); higher = more viable cancer cells
Experimental: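 JC-1 labelled TNBC cells cocultured 1:1 (1,500 cells each) with CellTrace Violet stained primary or stromal fibroblasts in 384-well plates in FluoroBrite medium, treated with one of 42 anticancer drugs at 0.1, 1, 10 or 100 uM. JC-1 red fluorescence (mitochondrial integrity in cancer cells only) was read by plate reader every 8 h for 72 h. Values are normalised to each well's pre-drug value. The stock of one drug was tenfold lower, so its dose labels may be too high.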

O=C(O)CCCc1ccc(N(CCCl)CCCl)cc1 [Chlorambucil]
relative JC-1 red fluorescence
Conditions	8 h	16 h	24 h	32 h	40 h	48 h	56 h	64 h	72 h
0.1 µM, coculture fibroblast: C12385	0.8282	0.837	0.852	0.836	0.829	0.874	0.856	0.872	0.886
0.1 µM, coculture fibroblast: H6013	0.854	0.848	0.818	0.822	0.815	0.842	0.829	0.827	0.78
0.1 µM, coculture fibroblast: H6019	0.844	0.844	0.8398	0.832	0.809	0.8174	0.7756	0.7596	0.7379
0.1 µM, coculture fibroblast: H6076	0.92079	0.958	0.916	0.926	0.864	0.87	0.861	0.86	0.913
0.1 µM, coculture fibroblast: H6231	0.785	0.9018	0.821	0.812	0.75	0.741	0.694	0.664	0.666
0.1 µM, coculture fibroblast: HADF	0.858	0.838	0.792	0.783	0.755	0.767	0.735	0.743	0.696
0.1 µM, coculture fibroblast: HCFa	0.881	0.865	0.8133	0.792	0.7465	0.7555	0.711	0.682	0.637
0.1 µM, coculture fibroblast: HCPF	0.8281	0.9016	0.855	0.848	0.793	0.77	0.722	0.724	0.718
0.1 µM, coculture fibroblast: HHSteC	0.907	0.88	0.854	0.822	0.785	0.8	0.75	0.729	0.685
0.1 µM, coculture fibroblast: HMF	0.8575	0.955	0.921	0.917	0.853	0.838	0.797	0.786	0.783
0.1 µM, coculture fibroblast: HPFa	0.895	0.8635	0.834	0.7735	0.7575	0.764	0.702	0.68	0.603
0.1 µM, coculture fibroblast: HUF	0.863	0.829	0.8079	0.7505	0.73	0.738	0.704	0.705	0.701
0.1 µM, coculture fibroblast: Hs5	0.958	0.929	0.901	0.873	0.837	0.816	0.795	0.764	0.783
0.1 µM, coculture fibroblast: Hs27A	0.836	0.86	0.798	0.801	0.774	0.785	0.766	0.754	0.699
0.1 µM, coculture fibroblast: Hs343T	0.856	0.937	0.891	0.87	0.804	0.7853	0.7451	0.744	0.739
0.1 µM, coculture fibroblast: WS1	0.833	0.79	0.795	0.762	0.735	0.751	0.747	0.765	0.773
1 µM, coculture fibroblast: C12385	0.88	0.8284	0.784	0.716	0.663	0.64	0.595	0.561	0.546
1 µM, coculture fibroblast: H6013	0.879	0.8364	0.782	0.761	0.723	0.722	0.689	0.667	0.629
1 µM, coculture fibroblast: H6019	0.848	0.783	0.748	0.688	0.645	0.622	0.57	0.525	0.494
1 µM, coculture fibroblast: H6076	0.939	0.895	0.893	0.894	0.823	0.8067	0.76	0.741	0.786
1 µM, coculture fibroblast: H6231	0.8311	0.934	0.827	0.807	0.7553	0.7382	0.6884	0.662	0.637
1 µM, coculture fibroblast: HADF	0.8946	0.845	0.791	0.773	0.721	0.714	0.673	0.655	0.609
1 µM, coculture fibroblast: HCFa	0.869	0.8062	0.783	0.763	0.699	0.697	0.643	0.611	0.562
1 µM, coculture fibroblast: HCPF	0.884	0.94	0.84	0.838	0.769	0.746	0.6988	0.6765	0.6758
1 µM, coculture fibroblast: HHSteC	0.92	0.892	0.879	0.851	0.816	0.822	0.766	0.741	0.687
1 µM, coculture fibroblast: HMF	0.8573	0.932	0.847	0.823	0.7606	0.7458	0.704	0.691	0.679
1 µM, coculture fibroblast: HPFa	0.945	0.934	0.872	0.819	0.786	0.778	0.702	0.661	0.583
1 µM, coculture fibroblast: HUF	0.928	0.839	0.793	0.723	0.681	0.66	0.618	0.603	0.586
1 µM, coculture fibroblast: Hs5	0.826	0.933	0.963	0.94	0.868	0.834	0.771	0.731	0.726
1 µM, coculture fibroblast: Hs27A	0.865	0.802	0.784	0.78	0.721	0.707	0.661	0.629	0.589
1 µM, coculture fibroblast: Hs343T	0.893	0.943	0.859	0.829	0.75	0.724	0.66	0.638	0.615
1 µM, coculture fibroblast: WS1	0.89359	0.832	0.784	0.716	0.671	0.641	0.613	0.584	0.575
10 µM, coculture fibroblast: C12385	0.842	0.769	0.7112	0.643	0.5891	0.57	0.523	0.489	0.46
10 µM, coculture fibroblast: H6013	0.8596	0.8348	0.78176	0.7599	0.7197	0.7282	0.697	0.6741	0.6331
10 µM, coculture fibroblast: H6019	0.8391	0.806	0.771	0.722	0.683	0.675	0.632	0.599	0.581
10 µM, coculture fibroblast: H6076	0.898	0.948	0.911	0.912	0.857	0.847	0.807	0.801	0.83
10 µM, coculture fibroblast: H6231	0.834	0.9245	0.87	0.854	0.797	0.768	0.711	0.679	0.67
10 µM, coculture fibroblast: HADF	0.858	0.836	0.781	0.759	0.69	0.68	0.624	0.609	0.569
10 µM, coculture fibroblast: HCFa	0.8562	0.817	0.735	0.694	0.629	0.611	0.558	0.521	0.491
10 µM, coculture fibroblast: HCPF	0.8533	0.888	0.889	0.865	0.797	0.7688	0.7152	0.696	0.675
10 µM, coculture fibroblast: HHSteC	0.8759	0.835	0.788	0.749	0.706	0.706	0.644	0.614	0.567
10 µM, coculture fibroblast: HMF	0.823	0.974	0.883	0.842	0.775	0.755	0.699	0.673	0.646
10 µM, coculture fibroblast: HPFa	0.8957	0.889	0.847	0.802	0.763	0.758	0.687	0.659	0.59
10 µM, coculture fibroblast: HUF	0.877	0.79	0.741	0.679	0.635	0.604	0.558	0.532	0.51
10 µM, coculture fibroblast: Hs5	0.947	0.914	0.852	0.82	0.752	0.718	0.683	0.646	0.665
10 µM, coculture fibroblast: Hs27A	0.8407	0.803	0.736	0.7328	0.663	0.657	0.608	0.578	0.543
10 µM, coculture fibroblast: Hs343T	0.857	0.939	0.8735	0.8498	0.775	0.745	0.6925	0.677	0.647
10 µM, coculture fibroblast: WS1	0.82	0.754	0.7038	0.6473	0.594	0.565	0.524	0.494	0.474
100 µM, coculture fibroblast: C12385	0.8939	0.8315	0.7814	0.7236	0.661	0.634	0.566	0.507	0.48
100 µM, coculture fibroblast: H6013	0.8957	0.849	0.812	0.792	0.756	0.75	0.718	0.693	0.629
100 µM, coculture fibroblast: H6019	0.85	0.779	0.7479	0.667	0.6	0.552	0.481	0.428	0.407
100 µM, coculture fibroblast: H6076	0.927	0.929	0.886	0.92	0.844	0.838	0.806	0.787	0.864
100 µM, coculture fibroblast: H6231	0.872	0.955	0.885	0.892	0.826	0.811	0.772	0.738	0.743
100 µM, coculture fibroblast: HADF	0.909	0.872	0.79	0.78	0.715	0.6854	0.629	0.5929	0.521
100 µM, coculture fibroblast: HCFa	0.889	0.8	0.774	0.737	0.6579	0.642	0.581	0.536	0.473
100 µM, coculture fibroblast: HCPF	0.881	0.82	0.882	0.857	0.785	0.76	0.712	0.696	0.678
100 µM, coculture fibroblast: HHSteC	0.907	0.854	0.814	0.77	0.721	0.725	0.663	0.632	0.577
100 µM, coculture fibroblast: HMF	0.906	0.855	0.938	0.933	0.866	0.8573	0.799	0.7822	0.778
100 µM, coculture fibroblast: HPFa	0.934	0.866	0.78	0.707	0.64	0.612	0.545	0.514	0.447
100 µM, coculture fibroblast: HUF	0.9251	0.843	0.777	0.7032	0.651	0.599	0.5417	0.514	0.485
100 µM, coculture fibroblast: Hs5	0.946	0.92	0.9008	0.8953	0.817	0.788	0.739	0.6915	0.718
100 µM, coculture fibroblast: Hs27A	0.8569	0.782	0.761	0.744	0.684	0.674	0.631	0.607	0.559
100 µM, coculture fibroblast: Hs343T	0.895	0.784	0.886	0.899	0.886	0.874	0.817	0.794	0.77
100 µM, coculture fibroblast: WS1	0.8783	0.83	0.759	0.66	0.605	0.557	0.514	0.462	0.431
